Results as given in patent US10246455B2, “Histone deacetylase inhibitors” (Taipei Medical University, priority 2014, dated 2019).

Test system: PC3 prostate cancer cells
Experiment: Three dimensional cell growth inhibitory assay (cellular spheres, MTT, microscopy): PC3
Assay type: cell-based, human
Method: For the three dimensional assay, cells in the logarithmic phase were cultured in 50% Matrigel-containing complete medium in 96-well plates at 37° C. with 5% CO2 for five days incubation, and treated with appropriate concentrations of test compounds for three generative times. Images of spheroids were taken under a microscope, and spheroid cell survival was determined by MTT assays.
The cells (in the 2D culture) and the cellular spheres (in the 3D culture) were treated with test compounds for 72 hours, and then subjected to the MTT colorimetric assay. Each value represents the mean of three independent experiments. Cellular spheres formed in semi-solid and drug effect on cellular spheres were examined using phase-contrast light microscopy.
More specifically, cellular spheres formed in semi-solid and drug effect on cellular spheres were examined using phase-contrast light microscopy. 3D structures of cells were analyzed using 4× magnification, 10× magnification, and 20× magnification.

[1] = Table 4, ratio of 3D to 2D culture value
[2] = Table 6, ratio of 3D to 2D culture IC50

O=C(CCCCCCC(=O)Nc1ccccc1)NO [SAHA, reference compound]
Resistance (3D/2D) [1]: 1.69
Resistance (3D/2D) [2]: 1.69

COc1ccc(S(=O)(=O)N2CCc3cc(/C=C/C(=O)NO)cnc32)cc1 [Compound 5b, (E)-N-hydroxy-3-(1-(4-methoxyphenylsulfonyl)-2,3-dihydro-1H-pyrrolo[2,3-b]pyridin-5-yl)acrylamide]
Resistance (3D/2D) [2]: 2.41

COc1cccc2c1C(=O)c1c(O)c3c(c(O)c1C2=O)C[C@@](O)(C(=O)CO)C[C@@H]3O[C@H]1C[C@H](N)[C@H](O)[C@H](C)O1 [Adriamycin]
Resistance (3D/2D) [1]: 10.3
Resistance (3D/2D) [2]: 10.3

CC[C@]1(O)C[C@H]2CN(CCc3c([nH]c4ccccc34)[C@@](C(=O)OC)(c3cc4c(cc3OC)N(C=O)[C@H]3[C@@](O)(C(=O)OC)[C@H](OC(C)=O)[C@]5(CC)C=CCN6CC[C@]43[C@@H]65)C2)C1 [Vincristine]
Resistance (3D/2D) [1]: 3.33
Resistance (3D/2D) [2]: 3.33

O=C(/C=C/c1cccc(S(=O)(=O)n2ccc3cccnc32)c1)NO [Compound 7, (E)-3-(3-(1H-Pyrrolo[2,3-b]pyridin-1-ylsulfonyl)phenyl)-N-hydroxyacrylamide]
Resistance (3D/2D) [1]: 2.13

CC(=O)O[C@H]1C(=O)[C@@]2(C)[C@H]([C@H](OC(=O)c3ccccc3)[C@]3(O)C[C@H](OC(=O)[C@H](O)[C@@H](NC(=O)c4ccccc4)c4ccccc4)C(C)=C1C3(C)C)[C@]1(OC(C)=O)CO[C@@H]1C[C@@H]2O [Paclitaxel]
Resistance (3D/2D) [1]: 29,250
Resistance (3D/2D) [2]: 29250
